Literature values in patent US20180169108A1, “Drug Combinations For the Treatment of HIV” (The Johns Hopkins University, priority 2015, published 2018).
At least one compound was matched to its structure with a doubt left. Some entries repeat one wording, which the source may state once for all of them.

Key:
[1] = test system: HIV-1 (latent, in resting CD4+ T cells from infected individuals); details: earlier study of the inventors (32); cited from earlier work
HIV-1 = details: patients on ART; cited from earlier work
[2] = test system: HIV-1 (latent, in resting CD4+ T cells from infected individuals); details: earlier study (32); cited from earlier work

Row | SMILES | latency reversal in rCD4s from infected individuals (in words) [1] | increase in plasma HIV-1 RNA using quantitative clinical assays (in words) (HIV-1) | viral production ex vivo (in words) [2]
1 | Cc1[nH]c2ccccc2c1CCNCc1ccc(/C=C/C(=O)NO)cc1 [panobinostat] | only minimally active | no increases in plasma HIV-1 RNA | 
2 | C/C=C1\NC(=O)[C@H]2CSSCC/C=C/[C@H](CC(=O)N[C@H](C(C)C)C(=O)N2)OC(=O)[C@H](C(C)C)NC1=O [romidepsin] | only minimally active | detectable increases in plasma HIV-1 RNA | 
3 | CCN(CC)C(=S)SSC(=S)N(CC)CC [disulfiram] | only minimally active | no increases in plasma HIV-1 RNA | fail to stimulate detectable viral production
